Measured values: patent US6833342B2, “Method of deodorizing and/or cleaning carpet using a composition comprising odor control agent” (The Procter & Gamble Company, priority 1999, dated 2004)
Some of these results come from one statement about several compounds together. For part of these data: For at least one compound, name, drawing or mass did not settle the structure.

How the values were obtained:
[1] = Elevation of the surfactant's surface tension in the presence of cyclodextrin; type: physicochemical; settings: in the presence of a typical cyclodextrin like hydroxypropyl beta-cyclodextrin and methylated beta-cyclodextrin
[2] = cited from earlier work

Molecule	elevation in surface tension [1] [%]	stability over a wide pH range [2]
CCCCCCCCCCCCOS(=O)(=O)[O-].[Na+] [sodium dodecyl sulfate]	> 10	
Cn1sc2c(c1=O)CCC2 [Promexal, 2-methyl-4,5-trimethylene-4-isothiazolin-3-one]		4-12 pH
dodecanolpoly(6)ethoxylate	> 10	
